These are yes or no findings as the source states them, for the method shown. Binding seen in cells or lysates may run through a third protein. A result given as binding can be weak or reduced; the word gives no strength. Blank lines part the entries; values can stand above or below the binder they belong to.
Legend:
[1] = biological target: recombinant ferredoxin (Fd) from Leptolyngbya boryana (Leptolyngbya boryana); test: pull-down; Fd coupled to CNBr-activated Sepharose 4B; mixed with stromal proteins in 20 mM potassium phosphate pH 8.0; washed, eluted with the same buffer with 0.2 M NaCl; western blots after BN-PAGE; only the target purified
[2] = biological target: recombinant ferredoxin (Fd) from Leptolyngbya boryana (Leptolyngbya boryana); test: pull-down; Fd coupled to CNBr-activated Sepharose 4B; mixed with stromal proteins in 20 mM potassium phosphate pH 6.0; washed, eluted with the same buffer with 0.2 M NaCl; western blots after BN-PAGE; only the target purified

- binding [1]: binds
- binding [2]: binds
B1: nitrite reductase (NiR), spinach (enzyme, UniProt P05314 33-594)
chain: CQKAVSPAAETAAVSPSVDAARLEPRVEERDGFWVLKEEFRSGINPAEKVKIEKDPMKLFIEDGISDLATLSMEEVDKSKHNKDDIDVRLKWLGLFHRRKHHYGRFMMRLKLPNGVTTSEQTRYLASVIKKYGKDGCADVTTRQNWQIRGVVLPDVPEIIKGLESVGLTSLQSGMDNVRNPVGNPLAGIDPHEIVDTRPFTNLISQFVTANSRGNLSITNLPRKWNPCVIGSHDLYEHPHINDLAYMPATKNGKFGFNLLVGGFFSIKRCEEAIPLDAWVSAEDVVPVCKAMLEAFRDLGFRGNRQKCRMMWLIDELGMEAFRGEVEKRMPEQVLERASSEELVQKDWERREYLGVHPQKQQGLSFVGLHIPVGRLQADEMEELARIADVYGSGELRLTVEQNIIIPNVENSKIDSLLNEPLLKERYSPEPPILMKGLVACTGSQFCGQAIIETKARALKVTEEVQRLVSVTRPVRMHWTGCPNSCGQVQVADIGFMGCMTRDENGKPCEGADVFVGGRIGSDSHLGDIYKKAVPCKDLVPVVAEILINQFGAVPREREEAE

- binding [1]: binds
- binding [2]: binds
B2: ferredoxin-NADP+ oxidoreductase (FNR), spinach (enzyme, UniProt P00455 56-369)
chain: QIASDVEAPPPAPAKVEKHSKKMEEGITVNKFKPKTPYVGRCLLNTKITGDDAPGETWHMVFSHEGEIPYREGQSVGVIPDGEDKNGKPHKLRLYSIASSALGDFGDAKSVSLCVKRLIYTNDAGETIKGVCSNFLCDLKPGAEVKLTGPVGKEMLMPKDPNATIIMLGTGTGIAPFRSFLWKMFFEKHDDYKFNGLAWLFLGVPTSSSLLYKEEFEKMKEKAPDNFRLDFAVSREQTNEKGEKMYIQTRMAQYAVELWEMLKKDNTYFYMCGLKGMEKGIDDIMVSLAAAEGIDWIEYKRQLKKAEQWNVEVY

Reference: paper PMC4182809
